# Measured values reported in the supplement of paper PMC8728848.
# The list shows a part of the results.
# B1: BT4246 (Bacteroides thetaiotaomicron), Q89ZX5 (protein)
# chain: MGSSHHHHHHENLYFQGHMASDYLDVVPPEQPNIDDAMSSPTRALGFLYSCYGGVSTDLPSAYLGEINSTTDEYVLPYSWNTDGYWGAYAFNTASSTNQDWLWGTTYQYIGQCYLFLQKLENAGSDIASDAEKEQWRAECQFLVAYYHFATLRRYGPIPITDSYIPMDTPTSEYNGRFHFDYCVDWIANQLDEAAKVLPANRTVTNEWGRATSTIAKAVKARLLLYAASPLWNGSFPYPNWQNENFETPGYGKALVSNTYDKSKWERALAACQEALTLATTSGDRELYDDDEYYSRQSLNLPFVPGVADVEDNKEFLKNVMKMRYAVSTRESEGNKEIIWGLSNQFDFYSRYPLRILKKSDGTWHAGYSGVSPTLYTFEHFYTANGKLPEKDLDFTPSSEWFESAGISSREDIIKLNVGREPRFYAWMAFDGGDYGTKFAAGSPLKLEMRNSEMHGYNPSLFNRDHSVTGFLTQKFVDPVTEFYTAGGSTSGTSAPTILFRLAELYLNVAECHAALGNTQEAIDALNPVRERAGIPKLTLADITNNMTIKDWVHNERFVELWNEGHRFFDVRRWAEGAKYFGANKREGLNAEVQSPTFEEFNKRTTVDAPYVWENRMYLNPVFYNEVYKNPQMVQAPGY
# Experiments:
# Assay in all cases: glycan array binding signal (z-score within array); higher = stronger binding
# Conditions in all cases: glycan notation: IUPAC condensed, linker removed
# [1] = target: Neu5Ac(a2-6)GlcNAc(b1-4)GlcNAc
# How it was run: (§1)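 Arrays were curated from the Consortium for Functional Glycomics database, 3228 in total, and kept only where the protein sequence was available. Binding is expressed as a within-array Z-score. This score was averaged across arrays of the same protein sequence at different concentrations or buffers and across linkers, and negative values can be read as non-binding.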
# [2] = target: Neu5Ac(a2-6)GlcNAc(b1-4)GlcNAc(b1-4)GlcNAc
# How it was run: as §1
# Neu5Ac(a2-8)Neu5Ac = target: Neu5Ac(a2-8)Neu5Ac
# How it was run: as §1
# [3] = target: Neu5Ac(a2-8)Neu5Ac(a2-3)Gal(b1-3)GalNAc(b1-4)[Neu5Ac(a2-3)]Gal(b1-4)Glc
# How it was run: as §1
# [4] = target: Neu5Ac(a2-8)Neu5Ac(a2-3)Gal(b1-3)GalNAc(b1-4)[Neu5Ac(a2-8)Neu5Ac(a2-3)]Gal(b1-4)Glc
# How it was run: as §1
# [5] = target: Neu5Ac(a2-8)Neu5Ac(a2-3)Gal(b1-4)Glc
# How it was run: as §1
# [6] = target: Neu5Ac(a2-8)Neu5Ac(a2-3)Gal(b1-4)GlcNAc
# How it was run: as §1
# [7] = target: Neu5Ac(a2-8)Neu5Ac(a2-3)[Gal(b1-3)GalNAc(b1-4)]Gal(b1-4)Glc
# How it was run: as §1
# [8] = target: Neu5Ac(a2-8)Neu5Ac(a2-3)[GalNAc(b1-4)]Gal(b1-4)Glc
# How it was run: as §1
# [9] = target: Neu5Ac(a2-8)Neu5Ac(a2-8)Neu5Ac
# How it was run: as §1
# [10] = target: Neu5Ac(a2-8)Neu5Ac(a2-8)Neu5Ac(a2-3)Gal(b1-4)Glc
# How it was run: as §1
# [11] = target: Neu5Ac(a2-8)Neu5Ac(a2-8)Neu5Ac(a2-3)[Gal(b1-3)GalNAc(b1-4)]Gal(b1-4)Glc
# How it was run: as §1
# [12] = target: Neu5Ac(a2-8)Neu5Ac(a2-8)Neu5Ac(a2-3)[GalNAc(b1-4)]Gal(b1-4)Glc
# How it was run: as §1
# [13] = target: Neu5Ac(a2-8)Neu5Ac(a2-8)Neu5Ac(a2-8)Neu5Ac(a2-3)[GalNAc(b1-4)]Gal(b1-4)Glc
# How it was run: as §1
# [14] = target: Neu5Ac(a2-8)Neu5Gc(a2-3)Gal(b1-4)GlcNAc
# How it was run: as §1
# [15] = target: Neu5Ac(b2-6)Gal(b1-4)GlcNAc
# How it was run: as §1
# Neu5Ac(b2-6)GalNAc = target: Neu5Ac(b2-6)GalNAc
# How it was run: as §1
# [16] = target: Neu5Ac9Ac(a2-3)Gal(b1-3)GlcNAc
# How it was run: as §1
# [17] = target: Neu5Ac9Ac(a2-3)Gal(b1-4)GlcNAc
# How it was run: as §1
# [18] = target: Neu5Ac9Ac(a2-6)Gal(b1-4)GlcNAc
# How it was run: as §1
# [19] = target: Neu5Gc(a2-3)Gal(b1-3)GlcNAc
# How it was run: as §1
# [20] = target: Neu5Gc(a2-3)Gal(b1-3)[Fuc(a1-4)]GlcNAc
# How it was run: as §1
# Neu5Gc(a2-3)Gal(b1-4)Glc = target: Neu5Gc(a2-3)Gal(b1-4)Glc
# How it was run: as §1
# [21] = target: Neu5Gc(a2-3)Gal(b1-4)GlcNAc
# How it was run: as §1
# [22] = target: Neu5Gc(a2-3)Gal(b1-4)GlcNAc(b1-3)Gal(b1-4)GlcNAc(b1-2)Man(a1-3)[Neu5Gc(a2-3)Gal(b1-4)GlcNAc(b1-3)Gal(b1-4)GlcNAc(b1-2)Man(a1-6)]Man(b1-4)GlcNAc(b1-4)GlcNAc
# How it was run: as §1
# [23] = target: Neu5Gc(a2-3)Gal(b1-4)[Fuc(a1-3)]GlcNAc
# How it was run: as §1
# [24] = target: Neu5Gc(a2-6)Gal(b1-4)GlcNAc
# How it was run: as §1
# Neu5Gc(a2-6)GalNAc = target: Neu5Gc(a2-6)GalNAc
# How it was run: as §1
# [25] = target: Neu5Gc(a2-8)Neu5Ac(a2-3)Gal(b1-4)GlcNAc
# How it was run: as §1
# [26] = target: Neu5Gc(a2-8)Neu5Gc(a2-3)Gal(b1-4)GlcNAc
# How it was run: as §1
# [27] = target: Neu5Gc(a2-8)Neu5Gc(a2-3)Gal(b1-4)GlcNAc(b1-3)Gal(b1-4)GlcNAc
# How it was run: as §1
# [28] = target: Neu5Gc(a2-8)Neu5Gc(a2-6)Gal(b1-4)GlcNAc
# How it was run: as §1
# [29] = target: Neu5Gc(b2-6)Gal(b1-4)GlcNAc
# How it was run: as §1
binder,measurement,setting,value
B1,glycan array binding signal (z-score),[1],-1.36
same,glycan array binding signal (z-score),[2],-0.187
same,glycan array binding signal (z-score),Neu5Ac(a2-8)Neu5Ac,-0.727
same,glycan array binding signal (z-score),[3],1.96
same,glycan array binding signal (z-score),[4],-1.24
same,glycan array binding signal (z-score),[5],0.166
same,glycan array binding signal (z-score),[6],0.023
same,glycan array binding signal (z-score),[7],-1.1
same,glycan array binding signal (z-score),[8],0.954
same,glycan array binding signal (z-score),[9],0.853
same,glycan array binding signal (z-score),[10],0.149
same,glycan array binding signal (z-score),[11],-2.07
same,glycan array binding signal (z-score),[12],0.348
same,glycan array binding signal (z-score),[13],0.565
same,glycan array binding signal (z-score),[14],-0.408
same,glycan array binding signal (z-score),[15],-1.7
same,glycan array binding signal (z-score),Neu5Ac(b2-6)GalNAc,-1.18
same,glycan array binding signal (z-score),[16],-0.322
same,glycan array binding signal (z-score),[17],0.618
same,glycan array binding signal (z-score),[18],-0.498
same,glycan array binding signal (z-score),[19],-0.076
same,glycan array binding signal (z-score),[20],0.355
same,glycan array binding signal (z-score),Neu5Gc(a2-3)Gal(b1-4)Glc,0.221
same,glycan array binding signal (z-score),[21],-0.262
same,glycan array binding signal (z-score),[22],2.77
same,glycan array binding signal (z-score),[23],0.152
same,glycan array binding signal (z-score),[24],0.039
same,glycan array binding signal (z-score),Neu5Gc(a2-6)GalNAc,-0.37
same,glycan array binding signal (z-score),[25],0.762
same,glycan array binding signal (z-score),[26],-1.35
same,glycan array binding signal (z-score),[27],-0.182
same,glycan array binding signal (z-score),[28],-0.659
same,glycan array binding signal (z-score),[29],-0.769

# A section from further up, as a working copy:
binder,measurement,setting,value
B1,glycan array binding signal (z-score),[20],0.355
same,glycan array binding signal (z-score),Neu5Gc(a2-3)Gal(b1-4)Glc,0.221
